# According to PubChem BioAssay AID330 (DTP/NCI, 2004):
# The list does not hold the whole screen: it gathers tests that were run many times, whatever their T/C, doses with no T/C, and many T/C values between a quarter and a half above the control. Other doses and runs of a compound stand elsewhere. T/C gives the treated animals as a percentage of the vehicle group. Some entries give survivors of the animals treated and no T/C: the source holds a T/C of zero for them, seemingly a mark for toxic or unscored doses. Some doses without a T/C left all or most animals alive at the check, yet need not have been tolerated: the source hardly ever lists a survival T/C far under the control, and the zero likely stands for such cases as well. Counts of survivors are from the toxicity check (mostly the fifth day) where no day follows; animals may have died later. Schedule codes are those of the source, taken here to give the interval after Q, in days (D) or hours (H), and the number of doses after X. Some doses were run more than once; their values stand side by side, smallest first. Brackets with × count equal records among those shown. Where survival is the endpoint, this PubChem deposit counts one and a half times the control or more as active, and values a quarter to a half above the control carry no call in these data; other NCI protocols may use other cut-offs. Some T/C values are followed by the survivors on the day toxicity was checked, most often the fifth; without a count, all were alive then.
# Tested on: P388 leukemia ip, CD2F1 mice, survival T/C
# Test: NCI In Vivo Anticancer Drug Screen. Data for tumor model P388 Leukemia (intraperitoneal) in CD2F1 (CDF1) mice
# Conditions: T/C endpoint: median survival time, higher T/C = longer survival
# [1] = dose: 50.0 mg/kg/injection, schedule: Q01DX001 (ip), vehicle: Klucel (hydroxypropylcellulose) (HPC)
# [2] = dose: 100.0 mg/kg/injection, schedule: Q01DX001 (ip), vehicle: Klucel (hydroxypropylcellulose) (HPC)
# [3] = dose: 200.0 mg/kg/injection, schedule: Q01DX001 (ip), vehicle: Klucel (hydroxypropylcellulose) (HPC)
# [4] = dose: 200.0 mg/kg/injection, schedule: Q04DX003 (ip), vehicle: Klucel (hydroxypropylcellulose) (HPC)
# [5] = dose: 400.0 mg/kg/injection, schedule: Q01DX001 (ip), vehicle: Klucel (hydroxypropylcellulose) (HPC)
# [6] = dose: 400.0 mg/kg/injection, schedule: Q04DX002 (ip), vehicle: Klucel (hydroxypropylcellulose) (HPC)
# [7] = dose: 400.0 mg/kg/injection, schedule: Q04DX003 (ip), vehicle: Klucel (hydroxypropylcellulose) (HPC)
smiles,measurement,setting,value
CC(=O)NNC(=O)c1ccccn1,T/C,"dose: 25.0 mg/kg/injection, schedule: Q01DX005 (ip), vehicle: Klucel (hydroxypropylcellulose) (HPC), evaluated on day 30","87, 93, 95 [2 of 3 alive], 96, 97 (2×), 98, 99, 99 [5 of 6 alive], 100 (2×), 101 (3×), 102, 103 (2×), 104 (3×), 105, 106 (2×), 109, 112, 114, 122, 128, 164 % of control"
same,T/C,"dose: 25.0 mg/kg/injection, schedule: Q01DX005 (ip), vehicle: Klucel (hydroxypropylcellulose) (HPC), evaluated on day 35",108 % of control
same,survivor count,"dose: 25.0 mg/kg/injection, schedule: Q01DX005 (ip), vehicle: Klucel (hydroxypropylcellulose) (HPC)",3 of 3 and 6 of 6
same,T/C,"dose: 25.0 mg/kg/injection, schedule: Q01DX009 (ip), vehicle: Klucel (hydroxypropylcellulose) (HPC), evaluated on day 30","88, 89, 91 (2×), 93, 94, 95 (2×), 96, 97, 98, 99 (3×), 100 (5×), 102 (6×), 104, 105, 107, 112, 116 (2×), 123 % of control"
same,T/C,"dose: 25.0 mg/kg/injection, schedule: Q01DX009 (ip), vehicle: Klucel (hydroxypropylcellulose) (HPC), evaluated on day 35",91 and 98 % of control
same,survivor count,"dose: 25.0 mg/kg/injection, schedule: Q01DX009 (ip), vehicle: Klucel (hydroxypropylcellulose) (HPC)",3 of 3
same,T/C,[1],"89 [4 of 6 alive], 90, 95, 96 (2×), 98, 99 (2×), 99 [5 of 6 alive], 100 (7×), 101 (5×), 102 (2×), 105, 108, 109, 111, 112, 113, 114, 115 % of control"
same,survivor count,[1],6 of 6
same,T/C,"dose: 50.0 mg/kg/injection, schedule: Q01DX005 (ip), vehicle: Klucel (hydroxypropylcellulose) (HPC), evaluated on day 30","89, 92, 94, 95, 96 (2×), 97, 99, 100 (7×), 101 (2×), 102, 103, 104 (2×), 105, 108 (2×), 109 (2×), 111, 112, 140, 176 % of control"
same,T/C,"dose: 50.0 mg/kg/injection, schedule: Q01DX005 (ip), vehicle: Klucel (hydroxypropylcellulose) (HPC), evaluated on day 35",116 % of control
same,survivor count,"dose: 50.0 mg/kg/injection, schedule: Q01DX005 (ip), vehicle: Klucel (hydroxypropylcellulose) (HPC)",3 of 3 and 6 of 6
same,T/C,"dose: 50.0 mg/kg/injection, schedule: Q01DX009 (ip), vehicle: Klucel (hydroxypropylcellulose) (HPC), evaluated on day 30","87, 91, 92, 93, 94, 95, 96, 97, 98 (3×), 99 (2×), 100 (4×), 102 (5×), 103, 104 (2×), 105, 106, 107, 109 (2×), 110 % of control (2×)"
same,T/C,"dose: 50.0 mg/kg/injection, schedule: Q01DX009 (ip), vehicle: Klucel (hydroxypropylcellulose) (HPC), evaluated on day 35",87 and 104 % of control
same,survivor count,"dose: 50.0 mg/kg/injection, schedule: Q01DX009 (ip), vehicle: Klucel (hydroxypropylcellulose) (HPC)",2 of 3
same,T/C,"dose: 50.0 mg/kg/injection, schedule: Q04DX002 (ip), vehicle: Klucel (hydroxypropylcellulose) (HPC), evaluated on day 30","88, 94, 95, 96, 97 (2×), 98 (2×), 99 (3×), 100 (7×), 101 (2×), 102, 104 (3×), 105 (2×), 106, 107, 110, 113, 132, 155, 166 % of control"
same,T/C,"dose: 50.0 mg/kg/injection, schedule: Q04DX002 (ip), vehicle: Klucel (hydroxypropylcellulose) (HPC), evaluated on day 35","99, 102, 109 % of control"
same,survivor count,"dose: 50.0 mg/kg/injection, schedule: Q04DX002 (ip), vehicle: Klucel (hydroxypropylcellulose) (HPC)",3 of 3 and 6 of 6
same,T/C,"dose: 50.0 mg/kg/injection, schedule: Q04DX003 (ip), vehicle: Klucel (hydroxypropylcellulose) (HPC)","89, 90, 93 (2×), 95, 96 (2×), 97, 98, 99 (5×), 100 (4×), 101, 102, 103, 104 (4×), 105, 106 (2×), 107 (2×), 108, 109, 115, 117 % of control"
same,T/C,[2],"91 (3×), 95 (2×), 96, 98 (2×), 99 (3×), 100, 101, 102 (5×), 103 (3×), 104 (3×), 105, 106, 107, 112, 114 (2×), 119 % of control"
same,survivor count,[2],6 of 6
same,T/C,"dose: 100.0 mg/kg/injection, schedule: Q01DX005 (ip), vehicle: Klucel (hydroxypropylcellulose) (HPC), evaluated on day 30","90, 96, 97, 99, 99 [2 of 2 alive], 100 (5×), 100 [2 of 3 alive], 101, 102 (4×), 103 (2×), 104, 105 (2×), 106 (2×), 106 [2 of 3 alive], 108, 109, 110, 111, 113, 115, 123, 238 % of control"
same,T/C,"dose: 100.0 mg/kg/injection, schedule: Q01DX005 (ip), vehicle: Klucel (hydroxypropylcellulose) (HPC), evaluated on day 35",112 % of control
same,T/C,"dose: 100.0 mg/kg/injection, schedule: Q01DX009 (ip), vehicle: Klucel (hydroxypropylcellulose) (HPC), evaluated on day 30","87, 89, 91, 94 (2×), 95, 96, 97 (2×), 98 (5×), 100 (2×), 101, 102 (3×), 104, 105 (2×), 106, 107, 109, 110 (2×), 111, 120, 125, 127 % of control"
same,T/C,"dose: 100.0 mg/kg/injection, schedule: Q01DX009 (ip), vehicle: Klucel (hydroxypropylcellulose) (HPC), evaluated on day 35",87 and 107 % of control
same,survivor count,"dose: 100.0 mg/kg/injection, schedule: Q01DX009 (ip), vehicle: Klucel (hydroxypropylcellulose) (HPC)",3 of 3
same,T/C,"dose: 100.0 mg/kg/injection, schedule: Q04DX002 (ip), vehicle: Klucel (hydroxypropylcellulose) (HPC), evaluated on day 30","90 (2×), 93 (2×), 95, 96, 97, 99 (2×), 100 (4×), 101, 102 (3×), 103, 104 (2×), 105 (2×), 106 (2×), 108, 109 (2×), 110, 115, 121, 123, 128 % of control"
same,T/C,"dose: 100.0 mg/kg/injection, schedule: Q04DX002 (ip), vehicle: Klucel (hydroxypropylcellulose) (HPC), evaluated on day 35","102, 103, 104 % of control [2 of 3 alive]"
same,survivor count,"dose: 100.0 mg/kg/injection, schedule: Q04DX002 (ip), vehicle: Klucel (hydroxypropylcellulose) (HPC)",3 of 3 and 6 of 6
same,T/C,"dose: 100.0 mg/kg/injection, schedule: Q04DX003 (ip), vehicle: Klucel (hydroxypropylcellulose) (HPC)","90, 91, 92, 93, 95 (2×), 97 (3×), 98, 99, 100 (5×), 101 (2×), 102, 103, 104 (2×), 105 (3×), 106, 108 (4×), 109, 110, 111, 116 % of control"
same,T/C,[3],"91, 94, 95 [5 of 6 alive], 96, 97, 98 [5 of 6 alive], 99 (4×), 100 (5×), 102 (3×), 103, 104 (2×), 105 (3×), 106, 108, 109, 113, 118, 119, 124 % of control"
same,survivor count,[3],6 of 6
same,T/C,"dose: 200.0 mg/kg/injection, schedule: Q01DX005 (ip), vehicle: Klucel (hydroxypropylcellulose) (HPC), evaluated on day 30","90 [5 of 6 alive], 92 [5 of 6 alive], 98, 99, 99 [5 of 6 alive], 103, 103 [5 of 6 alive], 104, 105, 106 [5 of 6 alive], 108, 109, 109 [2 of 3 alive], 110 (2×), 112, 115, 116, 128 [4 of 6 alive], 129 % of control"
same,T/C,"dose: 200.0 mg/kg/injection, schedule: Q01DX005 (ip), vehicle: Klucel (hydroxypropylcellulose) (HPC), evaluated on day 35",129 % of control
same,survivor count,"dose: 200.0 mg/kg/injection, schedule: Q01DX005 (ip), vehicle: Klucel (hydroxypropylcellulose) (HPC)","1 of 6, 1 of 3, 2 of 6, 3 of 6, 2 of 3, 4 of 6, 5 of 6"
same,T/C,"dose: 200.0 mg/kg/injection, schedule: Q01DX009 (ip), vehicle: Klucel (hydroxypropylcellulose) (HPC), evaluated on day 30","86, 87, 90 [2 of 3 alive], 93, 94, 96, 96 [2 of 3 alive], 97 [5 of 6 alive], 98 [5 of 6 alive], 99, 100, 102 (2×), 108 [5 of 6 alive], 109, 110 [2 of 3 alive], 111, 114, 122, 132 % of control"
same,T/C,"dose: 200.0 mg/kg/injection, schedule: Q01DX009 (ip), vehicle: Klucel (hydroxypropylcellulose) (HPC), evaluated on day 35",87 and 95 % of control
same,survivor count,"dose: 200.0 mg/kg/injection, schedule: Q01DX009 (ip), vehicle: Klucel (hydroxypropylcellulose) (HPC)","0 of 3, 1 of 3, 3 of 6, 2 of 3, 4 of 6, 5 of 6, 3 of 3, 6 of 6"
same,T/C,"dose: 200.0 mg/kg/injection, schedule: Q04DX002 (ip), vehicle: Klucel (hydroxypropylcellulose) (HPC), evaluated on day 30","94, 95, 98 (2×), 98 [5 of 6 alive], 99 (2×), 100 (4×), 101 (2×), 102, 102 [5 of 6 alive], 103 (3×), 104 (3×), 105, 106 (3×), 107 (2×), 108 (3×), 109 (2×), 114 % of control [2 of 3 alive]"
same,T/C,"dose: 200.0 mg/kg/injection, schedule: Q04DX002 (ip), vehicle: Klucel (hydroxypropylcellulose) (HPC), evaluated on day 35",104 (2×) and 105 % of control
same,survivor count,"dose: 200.0 mg/kg/injection, schedule: Q04DX002 (ip), vehicle: Klucel (hydroxypropylcellulose) (HPC)",3 of 3 and 6 of 6
same,T/C,[4],"88 [2 of 3 alive], 89 [5 of 6 alive], 90, 91, 93, 94, 95 (3×), 96, 97 (2×), 99 (3×), 100 (4×), 102, 103, 104 (3×), 105, 106 (2×), 107 (4×), 111, 114 % of control"
same,survivor count,[4],6 of 6
same,T/C,[5],"99 [2 of 3 alive], 100, 102 [2 of 3 alive], 104 [4 of 6 alive], 109 [2 of 3 alive], 109 [5 of 6 alive], 114 [2 of 3 alive], 115 [2 of 3 alive], 139 % of control [2 of 3 alive]"
same,survivor count,[5],"0 of 3, 0 of 6, 1 of 6, 1 of 3, 2 of 6, 3 of 6, 6 of 6"
same,T/C,[6],"88 [4 of 6 alive], 99 [4 of 6 alive], 100, 108 [2 of 3 alive], 109, 109 [2 of 3 alive], 109 [4 of 6 alive], 111 % of control"
same,survivor count,[6],"0 of 3 (2×), 0 of 6 (2×), 1 of 6, 1 of 3, 2 of 6 (2×), 3 of 6, 2 of 3, 4 of 6, 6 of 6"
same,T/C,[7],"86 [2 of 3 alive], 89 [4 of 6 alive], 91 [5 of 6 alive], 95 % of control [2 of 3 alive]"
same,survivor count,[7],"0 of 3, 0 of 6, 1 of 6, 1 of 3, 2 of 6, 3 of 6, 2 of 3, 4 of 6"
Nc1ccc(NCCCC2CCCN3CCCCC23)c2c(=O)c3ccccc3sc12 (centres undefined),survivor count,"dose: 400.0 mg/kg/injection, schedule: Q01DX005 (ip), vehicle: saline with Tween-80",0 of 6
